Reference: the supplement of paper PMC10849652
The other results are listed elsewhere or left out. Residues, ends and D or L forms follow the SMILES beside them. *: point of attachment. Cbz = O=C(OCc1ccccc1)*

Protein sequences, listed by entry. Tags and fused reporters are not part of them. Lines headed by an entry give the natural chain unless they say otherwise; changes in a name come on top.
UniProt Q969H8: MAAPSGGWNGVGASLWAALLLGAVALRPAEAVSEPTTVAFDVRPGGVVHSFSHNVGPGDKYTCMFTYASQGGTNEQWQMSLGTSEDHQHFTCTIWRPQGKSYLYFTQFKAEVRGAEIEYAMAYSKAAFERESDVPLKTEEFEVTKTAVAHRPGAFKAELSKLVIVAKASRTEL
UniProt Q9UBK8: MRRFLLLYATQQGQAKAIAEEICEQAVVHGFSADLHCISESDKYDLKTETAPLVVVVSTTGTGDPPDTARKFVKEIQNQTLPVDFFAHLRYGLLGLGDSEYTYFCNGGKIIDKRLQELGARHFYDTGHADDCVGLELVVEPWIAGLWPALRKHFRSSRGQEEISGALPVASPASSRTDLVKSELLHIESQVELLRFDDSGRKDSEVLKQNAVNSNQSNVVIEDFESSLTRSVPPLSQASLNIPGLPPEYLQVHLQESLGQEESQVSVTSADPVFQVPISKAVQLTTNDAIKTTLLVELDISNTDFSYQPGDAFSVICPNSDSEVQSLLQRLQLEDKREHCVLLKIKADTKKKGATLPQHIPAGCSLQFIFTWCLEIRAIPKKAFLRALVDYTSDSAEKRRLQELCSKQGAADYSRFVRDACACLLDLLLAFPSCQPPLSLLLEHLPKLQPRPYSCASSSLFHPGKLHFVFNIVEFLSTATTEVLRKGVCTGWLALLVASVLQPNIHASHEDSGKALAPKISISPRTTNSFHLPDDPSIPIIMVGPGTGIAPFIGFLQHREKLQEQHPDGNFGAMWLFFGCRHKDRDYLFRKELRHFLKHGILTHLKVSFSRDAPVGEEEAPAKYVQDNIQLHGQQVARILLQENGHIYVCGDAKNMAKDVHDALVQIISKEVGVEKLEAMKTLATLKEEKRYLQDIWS
UniProt P42898: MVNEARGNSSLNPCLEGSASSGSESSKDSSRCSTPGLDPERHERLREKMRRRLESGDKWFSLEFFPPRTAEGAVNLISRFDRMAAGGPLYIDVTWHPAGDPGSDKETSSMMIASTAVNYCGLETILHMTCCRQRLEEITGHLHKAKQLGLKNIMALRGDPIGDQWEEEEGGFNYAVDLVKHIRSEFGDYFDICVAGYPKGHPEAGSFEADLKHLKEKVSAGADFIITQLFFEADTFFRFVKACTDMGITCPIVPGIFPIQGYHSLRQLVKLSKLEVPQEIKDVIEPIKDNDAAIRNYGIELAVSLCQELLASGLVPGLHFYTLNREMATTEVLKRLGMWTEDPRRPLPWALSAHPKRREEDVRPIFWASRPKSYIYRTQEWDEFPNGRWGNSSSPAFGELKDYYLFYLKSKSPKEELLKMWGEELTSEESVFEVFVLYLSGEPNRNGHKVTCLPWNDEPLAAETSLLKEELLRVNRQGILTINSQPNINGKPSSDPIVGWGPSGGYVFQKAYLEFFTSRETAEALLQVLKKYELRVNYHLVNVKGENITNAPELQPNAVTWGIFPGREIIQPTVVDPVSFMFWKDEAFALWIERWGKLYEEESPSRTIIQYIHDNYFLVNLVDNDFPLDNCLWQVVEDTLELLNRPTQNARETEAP
UniProt Q9UDX5: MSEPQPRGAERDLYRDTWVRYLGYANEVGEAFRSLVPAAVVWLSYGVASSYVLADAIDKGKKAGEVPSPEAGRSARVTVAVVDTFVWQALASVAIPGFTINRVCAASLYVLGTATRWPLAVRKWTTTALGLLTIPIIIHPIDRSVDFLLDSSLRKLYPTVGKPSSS
UniProt Q96DR8: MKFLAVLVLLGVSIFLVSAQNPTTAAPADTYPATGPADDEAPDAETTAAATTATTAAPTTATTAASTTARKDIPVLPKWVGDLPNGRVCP
UniProt P14649: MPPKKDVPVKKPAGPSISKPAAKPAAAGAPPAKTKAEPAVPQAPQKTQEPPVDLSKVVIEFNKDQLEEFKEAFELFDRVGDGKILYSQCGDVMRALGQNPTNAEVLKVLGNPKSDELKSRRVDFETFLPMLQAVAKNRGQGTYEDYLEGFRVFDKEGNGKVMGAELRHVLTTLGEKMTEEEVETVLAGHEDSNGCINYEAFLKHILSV
UniProt P13995: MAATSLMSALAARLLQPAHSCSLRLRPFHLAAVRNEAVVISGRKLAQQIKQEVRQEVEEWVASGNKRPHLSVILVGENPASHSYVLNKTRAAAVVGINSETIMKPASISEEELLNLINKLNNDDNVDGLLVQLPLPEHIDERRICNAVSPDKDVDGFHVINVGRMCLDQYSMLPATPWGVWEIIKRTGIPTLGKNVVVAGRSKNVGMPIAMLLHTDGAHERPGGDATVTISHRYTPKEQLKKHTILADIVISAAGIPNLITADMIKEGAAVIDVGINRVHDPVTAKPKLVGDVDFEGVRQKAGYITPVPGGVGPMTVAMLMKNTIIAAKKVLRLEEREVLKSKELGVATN
UniProt P52701: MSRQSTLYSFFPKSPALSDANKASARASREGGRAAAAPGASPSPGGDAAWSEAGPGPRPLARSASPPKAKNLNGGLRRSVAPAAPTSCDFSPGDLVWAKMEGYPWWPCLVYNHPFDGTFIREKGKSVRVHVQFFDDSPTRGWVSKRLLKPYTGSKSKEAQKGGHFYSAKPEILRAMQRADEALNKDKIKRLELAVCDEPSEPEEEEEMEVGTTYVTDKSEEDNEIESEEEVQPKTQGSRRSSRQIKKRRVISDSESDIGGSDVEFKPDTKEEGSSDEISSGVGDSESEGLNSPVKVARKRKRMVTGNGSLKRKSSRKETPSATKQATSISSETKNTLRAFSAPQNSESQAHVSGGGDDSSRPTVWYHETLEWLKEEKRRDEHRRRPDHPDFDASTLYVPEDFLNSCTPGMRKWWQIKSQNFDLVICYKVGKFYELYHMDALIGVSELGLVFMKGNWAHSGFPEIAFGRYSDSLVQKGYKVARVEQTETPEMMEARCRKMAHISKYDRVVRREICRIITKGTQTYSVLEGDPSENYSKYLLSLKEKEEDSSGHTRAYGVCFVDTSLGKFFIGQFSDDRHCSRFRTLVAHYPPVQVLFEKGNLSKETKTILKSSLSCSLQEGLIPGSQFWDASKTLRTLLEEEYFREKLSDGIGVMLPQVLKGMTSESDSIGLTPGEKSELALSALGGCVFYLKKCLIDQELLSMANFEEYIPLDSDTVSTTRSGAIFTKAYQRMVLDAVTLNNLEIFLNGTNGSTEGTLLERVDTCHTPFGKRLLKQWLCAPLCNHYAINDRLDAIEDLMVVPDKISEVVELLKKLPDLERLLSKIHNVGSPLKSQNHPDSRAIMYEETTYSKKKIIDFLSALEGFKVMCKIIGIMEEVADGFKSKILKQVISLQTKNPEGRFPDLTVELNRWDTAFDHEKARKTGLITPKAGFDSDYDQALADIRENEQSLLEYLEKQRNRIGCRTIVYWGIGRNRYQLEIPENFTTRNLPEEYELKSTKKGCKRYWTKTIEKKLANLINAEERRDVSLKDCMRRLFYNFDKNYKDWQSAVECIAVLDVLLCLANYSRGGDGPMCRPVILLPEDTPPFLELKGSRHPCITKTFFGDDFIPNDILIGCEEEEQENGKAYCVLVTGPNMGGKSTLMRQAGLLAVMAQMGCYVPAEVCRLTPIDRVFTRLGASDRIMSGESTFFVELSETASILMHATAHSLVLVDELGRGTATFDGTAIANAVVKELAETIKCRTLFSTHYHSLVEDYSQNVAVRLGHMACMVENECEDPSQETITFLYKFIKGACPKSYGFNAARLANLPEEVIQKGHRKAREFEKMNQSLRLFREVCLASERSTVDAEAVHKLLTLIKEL
UniProt Q86UE4: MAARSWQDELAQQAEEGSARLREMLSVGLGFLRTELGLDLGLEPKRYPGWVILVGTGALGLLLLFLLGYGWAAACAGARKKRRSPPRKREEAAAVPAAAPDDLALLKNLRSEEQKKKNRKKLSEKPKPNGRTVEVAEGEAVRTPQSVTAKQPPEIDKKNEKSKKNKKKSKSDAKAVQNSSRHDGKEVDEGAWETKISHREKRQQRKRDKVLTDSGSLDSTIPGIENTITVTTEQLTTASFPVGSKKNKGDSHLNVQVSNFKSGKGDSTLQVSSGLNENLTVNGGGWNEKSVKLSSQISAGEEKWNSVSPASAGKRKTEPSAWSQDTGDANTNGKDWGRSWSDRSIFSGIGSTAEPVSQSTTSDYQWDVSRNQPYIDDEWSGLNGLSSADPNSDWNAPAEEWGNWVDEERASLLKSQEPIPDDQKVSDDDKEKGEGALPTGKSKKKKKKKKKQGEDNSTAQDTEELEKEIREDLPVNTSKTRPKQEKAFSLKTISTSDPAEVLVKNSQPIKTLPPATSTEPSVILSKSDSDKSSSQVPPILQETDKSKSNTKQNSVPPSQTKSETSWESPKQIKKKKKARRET
UniProt Q9NZJ7, whole entry, looked up: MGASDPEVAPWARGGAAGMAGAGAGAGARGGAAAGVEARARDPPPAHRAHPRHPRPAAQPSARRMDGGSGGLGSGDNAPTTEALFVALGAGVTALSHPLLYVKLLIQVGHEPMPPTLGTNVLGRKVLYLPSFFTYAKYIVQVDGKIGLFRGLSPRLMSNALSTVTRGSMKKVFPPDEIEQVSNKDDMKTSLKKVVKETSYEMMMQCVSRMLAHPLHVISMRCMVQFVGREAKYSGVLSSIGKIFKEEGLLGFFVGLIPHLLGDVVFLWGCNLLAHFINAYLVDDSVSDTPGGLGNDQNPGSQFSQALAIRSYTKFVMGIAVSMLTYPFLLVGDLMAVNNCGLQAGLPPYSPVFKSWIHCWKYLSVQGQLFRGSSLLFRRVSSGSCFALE
UniProt O14950, whole entry, looked up: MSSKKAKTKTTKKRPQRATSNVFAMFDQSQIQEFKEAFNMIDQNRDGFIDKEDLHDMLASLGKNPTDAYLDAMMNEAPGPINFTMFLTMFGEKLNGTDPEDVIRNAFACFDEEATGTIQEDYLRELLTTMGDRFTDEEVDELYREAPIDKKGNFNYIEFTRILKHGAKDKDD

Columns and labels:
Test in all cases: log2 fold change, soluble protein after heating vs DMSO (PISA); higher = thermal stabilisation; K562 cells, 10 uM, 30 min; active = over 0.2 and 3.5 SD of the protein, either way, in both replicates (recomputed)
IRAK-1-4 Inhibitor I = compound: C1COCCN1CCN2C3=CC=CC=C3N=C2NC(=O)C4=CC(=CC=C4)[N+](=O)[O-] [IRAK-1-4 Inhibitor I]
Procedure, shortened: (§1)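 K562 cells at 2×10^6 cells/mL were exposed to 10 μM compound for 30 min, then aliquots were heated for 3 min across 48°C-58°C, pooled, and extracted in PBS containing 0.5% NP-40 at 4°C. The supernatant after 21,000xg for 90 min was taken as soluble protein and measured by TMTpro 16plex LC-MS/MS with channel sums equalised. Thermal stability is reported relative to control samples, with values from duplicates. Fold changes are given on a log2 scale.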

ibrutinib = compound: C=CC(=O)N1CCC[C@@H](n2nc(-c3ccc(Oc4ccccc4)cc3)c3c(N)ncnc32)C1 [ibrutinib]
Procedure, shortened: as §1

[1] = compound: CC(=O)c1cnc2ccc(-c3cc(Cl)c(O)c(Cl)c3)nc2c1N[C@H]1CC[C@H](CN(C)C)CC1
Procedure, shortened: as §1

ralimetinib = compound: CC(C)(C)Cn1c(N)nc2ccc(-c3[nH]c(C(C)(C)C)nc3-c3ccc(F)cc3)nc21 [ralimetinib]
Procedure, shortened: as §1

[2] = compound: CC(C)(O)CC(=O)NCCn1ccc2ncnc(Nc3ccc(Oc4cccc(C(F)(F)F)c4)c(Cl)c3)c21
Procedure, shortened: as §1

[3] = compound: CC(C)C1=C2N=C(C=C(N2N=C1)NCC3=CC=CC=C3)NCCCCCCN
Procedure, shortened: as §1

[4] = compound: CC(C)C[C@@H](C=O)NC(=O)[C@H](CC(C)C)NC(=O)[C@H](CC(C)C)NC(=O)OCc1ccccc1
Procedure, shortened: as §1

pinometostat = compound: CC(C)N(C[C@H]1O[C@@H](n2cnc3c(N)ncnc32)[C@H](O)[C@@H]1O)[C@H]1C[C@@H](CCc2nc3cc(C(C)(C)C)ccc3[nH]2)C1 [pinometostat]
Procedure, shortened: as §1

[5] = compound: CC1=C(C(CC(=O)N1)C2=CC=C(C=C2)C(F)(F)F)C(=O)NC3=C(C=C4C(=C3)C=NN4)F
Procedure, shortened: as §1

[6] = compound: CC1=C(C2=C(C=C1)C(=O)C3=CC=CC=C3N2CCCN)C
Procedure, shortened: as §1

[7] = compound: CC1=C(C=C(C=C1)NC(=O)C2=CC(=CC=C2)C(C)(C)C#N)NC3=CC4=C(C=C3)N=CN(C4=O)C
Procedure, shortened: as §1

[8] = compound: CC1=C(C=C(C=C1)NC(=O)C2=CC(=CC=C2)N(C)C)NC(=O)C3=CC=C(C=C3)O
Procedure, shortened: as §1

[9] = compound: CC1=CC=C(C=C1)SC2=C3C=C(SC3=CN=C2)C(=O)N
Procedure, shortened: as §1

[10] = compound: CC1=NC(=CC=C1)C2=C(N=C(N2)C(C)(C)C)C3=CC4=NC=CN=C4C=C3
Procedure, shortened: as §1

Nexturastat A = compound: CCCCN(Cc1ccc(C(=O)NO)cc1)C(=O)Nc1ccccc1 [Nexturastat A]
Procedure, shortened: as §1

vemurafenib = compound: CCCS(=O)(=O)Nc1ccc(F)c(C(=O)c2c[nH]c3ncc(-c4ccc(Cl)cc4)cc23)c1F [vemurafenib]
Procedure, shortened: as §1

[11] = compound: CCCS(=O)(=O)Nc1ccc(F)c(C(=O)c2c[nH]c3ncc(Cl)cc23)c1F
Procedure, shortened: as §1

[12] = compound: CCCc1cc(C)[nH]c(=O)c1CNC(=O)c1cc(-c2ccnc(N3CCN(C)CC3)c2)cc2c1cnn2C(C)C
Procedure, shortened: as §1

givinostat = compound: CCN(CC)Cc1ccc2cc(COC(=O)Nc3ccc(C(=O)NO)cc3)ccc2c1 [givinostat]
Procedure, shortened: as §1

barasertib = compound: CCN(CCCOc1ccc2c(Nc3cc(CC(=O)Nc4cccc(F)c4)[nH]n3)ncnc2c1)CCOP(=O)(O)O [barasertib]
Procedure, shortened: as §1

Target | log2 fold change (IRAK-1-4 Inhibitor I) | log2 fold change (ibrutinib) | log2 fold change [1] | log2 fold change (ralimetinib) | log2 fold change [2] | log2 fold change [3] | log2 fold change [4] | log2 fold change (pinometostat) | log2 fold change [5] | log2 fold change [6] | log2 fold change [7] | log2 fold change [8] | log2 fold change [9] | log2 fold change [10] | log2 fold change (Nexturastat A) | log2 fold change (vemurafenib) | log2 fold change [11] | log2 fold change [12] | log2 fold change (givinostat) | log2 fold change (barasertib)
MYDGF (UniProt Q969H8) | inactive: 0.09 | inactive: 0.012 | inactive: 0.022 | inactive: -0.049 | inactive: 0.031 | inactive: 0.065 | inactive: -0.027 | inactive: -0.045 | inactive: 0.015 | inactive: -0.021 | inactive: -0.047 | inactive: 0.006 | inactive: -0.007 | inactive: -0.007 | inactive: 0 | inactive: -0.028 | inactive: -0.001 | inactive: -0.01 | inactive: -0.003 | inactive: -0.016
MTRR isoform 1 (UniProt Q9UBK8) | inactive: -0.023 | inactive: 0.021 | inactive: -0.044 | inactive: 0.074 | inactive: -0.077 | inactive: 0.075 | inactive: 0.046 | inactive: -0.026 | inactive: 0.009 | inactive: 0.131 | inactive: 0.049 | inactive: -0.086 | inactive: 0.056 | inactive: -0.041 | inactive: -0.026 | inactive: -0.013 | inactive: -0.034 | inactive: -0.042 | inactive: 0.084 | inactive: 0.022
MTHFR isoform 2 (UniProt P42898) | inactive: 0.046 | inactive: 0.012 | inactive: 0.018 | inactive: 0 | inactive: -0.032 | inactive: 0.003 | inactive: -0.017 | inactive: -0.029 | inactive: -0.018 | inactive: 0.122 | inactive: 0.026 | inactive: 0.028 | inactive: 0.003 | inactive: 0.029 | inactive: -0.051 | inactive: 0.007 | inactive: -0.01 | inactive: 0.004 | inactive: -0.027 | inactive: 0.02
MTFP1 (UniProt Q9UDX5) | inactive: 0.033 | inactive: 0.006 | inactive: 0.04 | inactive: -0.056 | inactive: 0.027 | inactive: 0.098 | inactive: 0.035 | inactive: 0.02 | inactive: -0.003 | inactive: 0.014 | inactive: -0.044 | inactive: -0.065 | inactive: 0.033 | inactive: -0.043 | inactive: 0 | inactive: -0.038 | inactive: -0.05 | inactive: -0.197 | inactive: -0.01 | inactive: 0.007
MRPL9 (UniProt Q9BYD2) | inactive: -0.156 | inactive: -0.044 | inactive: 0.074 | inactive: 0.089 | inactive: -0.007 | inactive: 0.01 | inactive: 0.071 | inactive: 0.06 | inactive: -0.03 | inactive: -0.027 | inactive: 0.104 | inactive: -0.118 | inactive: -0.055 | inactive: -0.014 | inactive: 0.237 | inactive: -0.042 | inactive: -0.027 | inactive: 0.146 | inactive: 0.04 | inactive: -0.065
MUCL1 (UniProt Q96DR8) | inactive: 0.131 | inactive: 0.272 | inactive: 0.193 | inactive: -0.19 | inactive: -0.068 | inactive: 0.173 | inactive: -0.153 | inactive: -0.341 | inactive: -0.915 | inactive: 0.522 | inactive: -0.118 | inactive: 0.052 | inactive: 0.595 | inactive: -0.461 | inactive: 0.047 | inactive: -0.208 | inactive: 0 | inactive: -0.198 | inactive: -0.063 | inactive: 0.099
MYL6B (UniProt P14649) | inactive: 0.019 | inactive: 0.016 | inactive: 0.008 | inactive: -0.015 | inactive: -0.012 | inactive: 0.003 | inactive: 0.029 | inactive: -0.012 | inactive: 0.013 | inactive: -0.016 | inactive: -0.009 | inactive: -0.067 | inactive: 0.02 | inactive: -0.02 | inactive: -0.009 | inactive: -0.022 | inactive: -0.01 | inactive: -0.001 | inactive: -0.045 | inactive: 0.054
MRPS24 (UniProt Q96EL2) | inactive: -0.048 | inactive: 0.009 | inactive: -0.071 | inactive: -0.086 | inactive: -0.094 | inactive: -0.159 | inactive: 0.051 | inactive: 0.002 | – | inactive: -0.227 | inactive: -0.01 | inactive: -0.037 | inactive: 0.047 | inactive: -0.003 | inactive: 0.095 | inactive: -0.065 | inactive: 0.057 | inactive: -0.016 | inactive: -0.035 | inactive: -0.024
MRPS18C (UniProt Q9Y3D5) | inactive: -0.05 | inactive: 0.017 | inactive: 0 | inactive: -0.022 | inactive: -0.001 | inactive: -0.058 | inactive: 0.114 | inactive: -0.016 | – | inactive: -0.247 | inactive: 0.024 | inactive: -0.038 | inactive: -0.138 | inactive: -0.011 | inactive: 0.07 | inactive: -0.01 | inactive: -0.016 | inactive: -0.215 | inactive: 0.093 | inactive: -0.052
MTHFD2 (UniProt P13995) | inactive: 0.06 | inactive: -0.005 | inactive: -0.021 | inactive: -0.074 | inactive: -0.074 | inactive: -0.105 | inactive: -0.023 | inactive: -0.01 | inactive: 0.026 | inactive: -0.032 | inactive: 0.005 | inactive: 0.023 | inactive: 0.014 | inactive: 0.035 | inactive: -0.031 | inactive: -0.014 | inactive: -0.002 | inactive: -0.036 | inactive: 0.015 | inactive: 0.005
MSH6 (UniProt P52701) | inactive: -0.18 | inactive: -0.088 | inactive: -0.121 | inactive: -0.024 | inactive: -0.299 | inactive: -0.544 | inactive: 0.039 | inactive: -0.005 | – | active: 0.884 | inactive: 0.076 | inactive: -0.078 | inactive: 0.112 | inactive: 0.108 | inactive: -0.049 | inactive: 0.119 | inactive: 0.194 | inactive: 0.03 | inactive: 0.35 | inactive: 0.171
MRPS16 (UniProt Q9Y3D3) | inactive: -0.082 | inactive: 0.02 | inactive: -0.047 | inactive: -0.008 | inactive: -0.034 | inactive: -0.19 | inactive: 0.015 | inactive: 0.021 | – | inactive: -0.126 | inactive: 0.055 | inactive: -0.052 | inactive: 0.006 | inactive: 0.132 | inactive: 0.124 | inactive: -0.014 | inactive: 0.062 | inactive: 0.032 | inactive: 0.031 | inactive: -0.084
MTDH (UniProt Q86UE4) | inactive: -0.132 | inactive: 0.023 | inactive: 0.12 | inactive: 0.108 | inactive: 0.084 | inactive: 0.038 | inactive: 0.073 | inactive: 0.309 | inactive: 0.02 | inactive: -0.111 | inactive: -0.006 | inactive: 0.003 | inactive: -0.04 | inactive: -0.089 | inactive: 0.274 | inactive: -0.12 | inactive: -0.013 | inactive: 0.134 | inactive: 0.021 | inactive: -0.137
MTCH1 (UniProt Q9NZJ7) | inactive: -0.003 | inactive: -0.016 | inactive: -0.014 | inactive: -0.036 | inactive: 0.168 | inactive: -0.004 | inactive: 0.019 | inactive: -0.018 | inactive: -0.044 | inactive: 0.026 | inactive: 0.051 | inactive: -0.003 | inactive: -0.042 | inactive: 0.047 | inactive: -0.094 | inactive: 0.04 | inactive: -0.009 | inactive: -0.05 | inactive: -0.024 | inactive: -0.018
MYL12B (UniProt O14950) | inactive: 0.047 | inactive: 0.043 | inactive: 0.067 | inactive: 0.143 | inactive: -0.013 | inactive: 0.005 | inactive: -0.015 | inactive: 0.011 | – | inactive: -0.004 | inactive: 0.005 | inactive: -0.015 | inactive: 0.014 | inactive: 0.007 | inactive: -0.005 | inactive: 0.039 | inactive: 0.054 | inactive: 0.136 | inactive: -0.023 | inactive: 0.014
MRPS33 (UniProt Q9Y291) | inactive: -0.006 | inactive: 0.022 | inactive: -0.004 | inactive: -0.038 | inactive: -0.069 | inactive: -0.034 | inactive: 0.122 | inactive: 0.096 | – | inactive: -0.158 | inactive: 0.075 | inactive: -0.078 | inactive: -0.025 | inactive: -0.004 | inactive: 0.098 | inactive: 0.023 | inactive: 0.073 | inactive: -0.042 | inactive: 0.043 | inactive: -0.015

Just log2 fold change (ralimetinib), log2 fold change [4] and log2 fold change [5] (two entries from above):
Target,log2 fold change (ralimetinib),log2 fold change [4],log2 fold change [5]
MYL12B (UniProt O14950),inactive: 0.143,inactive: -0.015,–
MRPS33 (UniProt Q9Y291),inactive: -0.038,inactive: 0.122,–
